No constants are given. Whether binding was seen depends on the method and setting. A result given as binding can be weak or reduced; the word gives no strength.
Assays:
[1] = target: T1, Bacillus thuringiensis LexA repressor (B. thuringiensis) (UniProt A0RH75); assay: DNase I footprinting; ^32P-labelled P3 fragment (GIL01 4801-5000); LexA 0-480 nM without or with 340 nM gp7; LexA-induced hypersensitive sites altered by gp7; both purified
T1 sequence: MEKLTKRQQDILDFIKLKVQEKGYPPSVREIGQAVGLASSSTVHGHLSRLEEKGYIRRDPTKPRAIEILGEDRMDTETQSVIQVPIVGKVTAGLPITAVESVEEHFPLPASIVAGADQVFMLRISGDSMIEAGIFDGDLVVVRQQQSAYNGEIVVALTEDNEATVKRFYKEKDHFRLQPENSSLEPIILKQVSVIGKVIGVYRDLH

[2] = target: T1, Bacillus thuringiensis LexA repressor (B. thuringiensis); assay: SPR; Biacore T100, 25°C; P3 DNA probes (wild-type spacing, or 5 or 10 nt inserted between dinBox2 and dinBox3) held on a streptavidin chip through the S1 primer; LexA and gp7 injected at 100 μl/min; 25 mM Tris-HCl pH 7.4, 140 mM NaCl, 5 mM EDTA, 2 mM DTT, 0.1 mg/ml BSA, 0.005% P20; both purified
[3] = target: T1, Bacillus thuringiensis LexA repressor (B. thuringiensis); assay: native gel or EMSA; P^32 end-labelled P3 promoter fragment carrying dinBox2 and dinBox3; LexA 0.17-13.28 nM with 17 nM gp7; gp7 gives a shift of higher molecular weight of the LexA-DNA complex; both purified

Measured: binding

GIL01 phage-encoded protein gp7 (bacteriophage GIL01)
binds: [1] | [2] | [3]
